Test results reported in US20150051246A1 (priority 2013, published 2015).

System: male C57BL/6NCrl mice
Experiment: Object Location Task (OLT), spatial memory, 24 h retention interval
Format: in vivo
Conditions: 3 h after T1
Excerpt: The objective of this study was to evaluate the cognitive improvement effects of Roflumilast on spatial memory employing Object Location Task (OLT) in male C57BL/6NCrl mice. Roflumilast was compared with data of the already established PDE4 inhibitor Rolipram in the same model.
Twenty-four 7 month-old male C57BL/6NCrl mice (Charles River, L'Arbresle, France) were used (average body weights: 27.6 g). The animals were kept under a 12/12-hour light/dark cycle (lights on from 07.00 pm to 07.00 am) with free access to food and water. All testing was done between 09.00 am and maximally 06.00 pm.
Both rolipram (Sigma-Aldrich St. Louis, USA; MW 275.34) and roflumilast (Biocrea, Radebeul, Germany; MW 403.21) were dissolved in dimethylsulfoxide (DMSO) and kept at 4° C.; this stock solution was used for further dilutions in 0.5% methylcellulose. Each of rolipram and roflumilast is used in form of its free base. All injected solutions consisted of 0.5% methylcellulose with a fixed DMSO percentages (1.2%) (vehicle).
For the Object Location Task (OLT), doses of 0.01 mg/kg, 0.03 mg/kg and 0.1 mg/kg of Rolipram or Roflumilast or vehicle were administered subcutaneously (s.c.). Based on previous findings, PDE4 inhibitor single administration was performed 3 hours after the first trial as this has an optimum effect on object memory performance. The injection volume was 5 μl/g.
The OLT apparatus consisted of a circular arena, 40 cm in diameter. Half of the 40 cm transparent polyvinyl chloride wall was covered from the outside with white paper. Two objects were placed symmetrically about 10 cm away from the wall on the separation line, between the transparent and covered side of the arena. Four different sets of objects were available: (1) a cone made of brass (maximal diameter 6 cm and total height 3.8 cm), (2) a transparent glass bottle (diameter 2.7 cm, height 8.5 cm) filled with sand and water, (3) a massive metal cube (2.5 cm×5 cm×7.5 cm) with two holes (diameter 1.5 cm), and (4) a massive aluminum cube with a tapering top (4.5 cm×4.5 cm×8.5 cm).
A testing session comprised two trials of 4 minutes. Before each trial, mice were placed in an empty Makrolon cage (incubation cage) for the same amount of time as the trial (4 min). During the first trial (T1), two identical objects were placed symmetrically about 10 cm away from the wall on the separation line between the transparent and covered side of the arena. After the first exploration period of 4 min, the mouse was put back in its home cage. Mice then received treatment at 3 hours post T1. Subsequently, after a predetermined delay interval (24 h), the mouse was placed in the apparatus for the second trial of 4 min (T2). Two identical objects as in T1 were used; one object was placed in the previously used position, whereas the other was placed in a novel position. The novel position of the object could either be a fixed distance towards the front or a fixed distance towards the back of the arena for both objects. The times spent exploring each object during T1 and T2 were recorded manually using a personal computer. All objects and locations were used in a balanced manner to exclude possible object and/or location preferences. To avoid olfactory cues, the objects were thoroughly cleaned with 70% ethanol after each trial. The testing order of conditions was determined randomly.
The measurements reflected the time spent by the mice in exploring each object during T1 and T2. The time spent in exploring the two identical samples in T1 were represented by ‘a1’ and ‘a2’, respectively. The time spent in exploring the sample and the new object in T2 were represented by ‘a’ and ‘b’, respectively. From these exploration times the following variables were calculated: e1, e2, and d2 (Table 1). The d2 index is a relative measure of discrimination corrected for exploratory activity. […]

Structure (SMILES)	e1, total exploration time during T1 (0.01 mg/kg s.c.)	e2, total exploration time during T2 (0.01 mg/kg s.c.)	e1, total exploration time during T1 (0.03 mg/kg s.c.)	e2, total exploration time during T2 (0.03 mg/kg s.c.)	e1, total exploration time during T1 (0.1 mg/kg s.c.)	e2, total exploration time during T2 (0.1 mg/kg s.c.)
COc1ccc(C2CNC(=O)C2)cc1OC1CCCC1 (stereo not drawn) [rolipram]	15.58 (0.95) s	12.99 (0.84) s	15.45 (1.35) s	13.56 (0.95) s	15.82 (1.03) s	12.29 (0.08) s
O=C(Nc1c(Cl)cncc1Cl)c1ccc(OC(F)F)c(OCC2CC2)c1 [roflumilast, N-(3,5-dichloropyridin-4-yl)-3-cyclopropylmethoxy-4-difluoromethoxybenzamide]	15.95 (1.11) s	14.13 (1.22) s	15.62 (1.37) s	16.13 (1.18) s	17.51 (1.36) s	13.73 (1.11) s
